Read-outs that look alike come from different tables or passages of the source. These are yes or no findings as the source states them, for the method shown. Binding seen in cells or lysates may run through a third protein. Here binding means that the protein was enriched with, or labelled near, the bait; the list need not be complete.

Protein sequences, listed by entry. Tags and fused reporters are not part of them.
UniProt P06700: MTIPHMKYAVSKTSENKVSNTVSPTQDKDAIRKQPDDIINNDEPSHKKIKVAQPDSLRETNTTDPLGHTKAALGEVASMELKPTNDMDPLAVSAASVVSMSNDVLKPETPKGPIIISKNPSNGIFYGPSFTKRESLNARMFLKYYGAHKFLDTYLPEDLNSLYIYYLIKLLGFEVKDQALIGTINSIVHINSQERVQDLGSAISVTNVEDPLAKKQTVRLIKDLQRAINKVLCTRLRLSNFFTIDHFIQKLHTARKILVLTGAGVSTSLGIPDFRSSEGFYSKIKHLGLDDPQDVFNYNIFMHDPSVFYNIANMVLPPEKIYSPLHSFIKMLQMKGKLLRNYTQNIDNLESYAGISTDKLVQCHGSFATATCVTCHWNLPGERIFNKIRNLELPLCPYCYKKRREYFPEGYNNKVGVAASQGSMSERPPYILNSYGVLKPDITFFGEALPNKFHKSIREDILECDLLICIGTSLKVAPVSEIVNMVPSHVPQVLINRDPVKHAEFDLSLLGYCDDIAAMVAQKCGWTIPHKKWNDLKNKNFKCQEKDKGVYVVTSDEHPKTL
UniProt P47037: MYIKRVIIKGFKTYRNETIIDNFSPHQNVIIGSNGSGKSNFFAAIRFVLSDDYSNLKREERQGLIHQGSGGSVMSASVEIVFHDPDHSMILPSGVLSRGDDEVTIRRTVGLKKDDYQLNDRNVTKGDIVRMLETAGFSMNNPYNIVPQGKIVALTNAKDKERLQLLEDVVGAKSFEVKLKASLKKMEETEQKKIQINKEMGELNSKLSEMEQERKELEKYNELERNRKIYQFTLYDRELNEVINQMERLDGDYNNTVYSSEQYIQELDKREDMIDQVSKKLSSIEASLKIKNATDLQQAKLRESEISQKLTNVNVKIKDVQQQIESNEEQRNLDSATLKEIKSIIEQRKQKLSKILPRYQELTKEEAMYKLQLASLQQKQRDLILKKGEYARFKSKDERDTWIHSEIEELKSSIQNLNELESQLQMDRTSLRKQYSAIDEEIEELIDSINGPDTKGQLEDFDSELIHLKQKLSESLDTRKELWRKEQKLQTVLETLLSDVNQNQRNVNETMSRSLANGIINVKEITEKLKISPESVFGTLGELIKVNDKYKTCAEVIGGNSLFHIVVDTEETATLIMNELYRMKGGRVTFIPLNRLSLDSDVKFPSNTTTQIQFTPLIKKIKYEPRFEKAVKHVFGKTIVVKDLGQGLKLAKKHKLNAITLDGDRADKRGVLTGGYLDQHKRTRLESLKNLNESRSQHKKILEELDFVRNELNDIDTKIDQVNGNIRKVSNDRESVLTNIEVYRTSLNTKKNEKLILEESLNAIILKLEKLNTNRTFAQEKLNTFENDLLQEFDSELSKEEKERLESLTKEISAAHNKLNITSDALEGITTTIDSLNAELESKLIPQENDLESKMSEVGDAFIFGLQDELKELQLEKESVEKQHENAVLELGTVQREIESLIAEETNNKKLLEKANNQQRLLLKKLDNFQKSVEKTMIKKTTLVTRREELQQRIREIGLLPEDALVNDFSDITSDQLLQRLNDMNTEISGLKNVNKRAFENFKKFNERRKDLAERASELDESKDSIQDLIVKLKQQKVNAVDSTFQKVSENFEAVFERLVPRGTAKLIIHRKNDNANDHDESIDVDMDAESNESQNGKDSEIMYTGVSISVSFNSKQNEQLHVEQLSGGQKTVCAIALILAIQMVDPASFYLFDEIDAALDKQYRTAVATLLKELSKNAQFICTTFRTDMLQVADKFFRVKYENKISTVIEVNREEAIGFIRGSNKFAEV
UniProt P06701: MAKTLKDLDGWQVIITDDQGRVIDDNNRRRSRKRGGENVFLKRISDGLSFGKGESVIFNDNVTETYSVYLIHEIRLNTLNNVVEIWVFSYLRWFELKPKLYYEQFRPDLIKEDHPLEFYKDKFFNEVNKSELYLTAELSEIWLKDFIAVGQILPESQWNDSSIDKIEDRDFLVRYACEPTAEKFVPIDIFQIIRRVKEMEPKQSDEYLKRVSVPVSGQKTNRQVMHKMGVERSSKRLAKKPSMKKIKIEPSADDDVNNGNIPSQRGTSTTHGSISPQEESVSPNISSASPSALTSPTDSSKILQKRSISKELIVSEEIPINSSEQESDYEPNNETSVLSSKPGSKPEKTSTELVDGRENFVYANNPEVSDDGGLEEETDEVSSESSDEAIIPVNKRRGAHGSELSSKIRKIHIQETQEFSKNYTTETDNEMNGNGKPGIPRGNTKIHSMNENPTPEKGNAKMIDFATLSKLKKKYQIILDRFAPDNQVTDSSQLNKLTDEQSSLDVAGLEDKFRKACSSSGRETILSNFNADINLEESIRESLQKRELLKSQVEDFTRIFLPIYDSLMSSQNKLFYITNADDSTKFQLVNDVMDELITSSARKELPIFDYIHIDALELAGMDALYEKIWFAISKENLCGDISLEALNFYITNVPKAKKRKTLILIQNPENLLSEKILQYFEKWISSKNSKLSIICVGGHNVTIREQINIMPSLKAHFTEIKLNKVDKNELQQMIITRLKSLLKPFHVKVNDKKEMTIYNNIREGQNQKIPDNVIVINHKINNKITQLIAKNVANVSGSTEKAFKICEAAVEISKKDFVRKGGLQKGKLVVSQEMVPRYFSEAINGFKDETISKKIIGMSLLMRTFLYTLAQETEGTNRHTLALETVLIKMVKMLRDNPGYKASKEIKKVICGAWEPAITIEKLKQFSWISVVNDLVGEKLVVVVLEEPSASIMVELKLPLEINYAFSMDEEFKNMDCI
UniProt P22579: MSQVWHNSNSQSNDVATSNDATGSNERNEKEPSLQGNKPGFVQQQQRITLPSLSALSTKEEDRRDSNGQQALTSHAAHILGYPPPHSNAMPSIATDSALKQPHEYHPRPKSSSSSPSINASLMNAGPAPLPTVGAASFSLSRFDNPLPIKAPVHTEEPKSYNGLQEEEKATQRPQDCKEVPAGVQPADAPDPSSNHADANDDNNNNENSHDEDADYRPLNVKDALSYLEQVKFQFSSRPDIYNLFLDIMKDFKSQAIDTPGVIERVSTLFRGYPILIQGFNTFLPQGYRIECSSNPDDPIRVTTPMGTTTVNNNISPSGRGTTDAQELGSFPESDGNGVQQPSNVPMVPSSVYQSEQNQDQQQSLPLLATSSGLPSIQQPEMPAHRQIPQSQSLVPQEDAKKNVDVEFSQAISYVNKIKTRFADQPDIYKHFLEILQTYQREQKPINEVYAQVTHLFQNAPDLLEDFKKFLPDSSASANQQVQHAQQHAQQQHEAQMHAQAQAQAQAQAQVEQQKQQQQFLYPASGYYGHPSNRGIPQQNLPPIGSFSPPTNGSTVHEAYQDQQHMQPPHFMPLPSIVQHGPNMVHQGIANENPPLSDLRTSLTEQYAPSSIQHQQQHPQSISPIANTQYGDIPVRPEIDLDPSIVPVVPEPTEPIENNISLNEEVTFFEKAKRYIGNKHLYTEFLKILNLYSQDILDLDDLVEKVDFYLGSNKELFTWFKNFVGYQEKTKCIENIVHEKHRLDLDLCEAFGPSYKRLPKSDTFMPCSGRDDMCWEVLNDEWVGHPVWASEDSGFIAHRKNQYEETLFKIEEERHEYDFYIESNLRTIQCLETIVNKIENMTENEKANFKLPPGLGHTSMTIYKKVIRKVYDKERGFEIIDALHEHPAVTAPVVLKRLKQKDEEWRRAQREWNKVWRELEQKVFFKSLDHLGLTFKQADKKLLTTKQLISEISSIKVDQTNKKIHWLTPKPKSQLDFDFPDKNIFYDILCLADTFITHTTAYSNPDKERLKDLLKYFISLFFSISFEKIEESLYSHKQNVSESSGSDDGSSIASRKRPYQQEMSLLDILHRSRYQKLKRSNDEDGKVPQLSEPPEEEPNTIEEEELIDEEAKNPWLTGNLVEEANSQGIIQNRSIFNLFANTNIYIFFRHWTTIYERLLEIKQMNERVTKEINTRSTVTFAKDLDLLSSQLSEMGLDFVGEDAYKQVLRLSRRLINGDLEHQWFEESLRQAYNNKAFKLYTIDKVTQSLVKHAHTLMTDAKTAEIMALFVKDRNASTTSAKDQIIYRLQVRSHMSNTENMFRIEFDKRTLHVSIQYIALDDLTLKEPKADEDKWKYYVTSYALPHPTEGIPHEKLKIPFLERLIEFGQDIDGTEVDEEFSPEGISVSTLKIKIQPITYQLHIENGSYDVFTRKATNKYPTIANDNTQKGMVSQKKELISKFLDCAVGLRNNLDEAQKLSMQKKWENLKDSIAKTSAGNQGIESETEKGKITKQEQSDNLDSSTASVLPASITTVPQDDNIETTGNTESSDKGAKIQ

In paper PMC10235086 one finds binding data, which are given here for 5 molecules.

For test [1], the target named is T1, ProteinA-Rio1 (S. cerevisiae) (UniProt Q12196).
T1 sequence: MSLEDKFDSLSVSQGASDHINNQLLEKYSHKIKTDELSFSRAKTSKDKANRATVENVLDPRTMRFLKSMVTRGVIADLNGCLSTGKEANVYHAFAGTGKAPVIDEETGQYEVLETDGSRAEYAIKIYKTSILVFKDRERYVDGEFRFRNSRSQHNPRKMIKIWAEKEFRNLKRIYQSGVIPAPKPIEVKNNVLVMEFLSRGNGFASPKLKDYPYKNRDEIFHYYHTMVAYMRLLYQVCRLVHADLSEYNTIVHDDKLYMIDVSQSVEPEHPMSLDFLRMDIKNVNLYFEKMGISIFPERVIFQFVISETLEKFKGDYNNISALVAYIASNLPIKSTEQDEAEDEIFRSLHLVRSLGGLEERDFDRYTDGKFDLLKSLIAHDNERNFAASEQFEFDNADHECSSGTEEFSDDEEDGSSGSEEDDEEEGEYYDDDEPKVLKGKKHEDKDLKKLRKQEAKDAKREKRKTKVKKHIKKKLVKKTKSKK
The experiment in a line: affinity purification with mass spectrometry; ProteinA-Rio1 expressed from PGAL1-10 (2% galactose, 2 h) in pep4∆ yeast; cleared lysate (50 mM Tris-Cl pH 7.5, 10% glycerol, 150 mM NaCl, 1 mM DTT, 0.4% NP-40) on rabbit IgG agarose beads overnight at 4 °C; washed with PBS-T; on-bead digestion …; untagged Rio1 as negative control; three independent purifications.

Test [2] deals with T1, ProteinA-Rio1 (S. cerevisiae). The test is described as above. The source holds these as a separate data set.

Regarding “Sir2 (from UniProt P06700 1-562) (enzyme)”, the binding result in test [1] was “binds”.

Take Smc3 (from UniProt P47037 1-1230): in test [1], the binding result is “binds”.

In the case of Sir3 (from UniProt P06701 1-978), the binding result in test [1] is “binds”.

On to Sin3 (from UniProt P22579 1-1536), for which, in test [1], the binding result is on record as “binds”.

B1: Hos4 (protein, UniProt P40480 1-1083)
chain: MNETTTKQPLKKRSLSSYLSNVSTRREELEKISKQETSEEEDTAGKHEQRETLSEEVSDKFPENVASFRSQTTSVHQATQNNLNAKESEDLAHKNDASSHEGEVNGDSRPDDVPETNEKISQAIRAKISSSSSSPNVRNVDIQNHQPFSRDQLRAMLKEPKRKTVDDFIEEEGLGAVEEEDLSDEVLEKNTTEPENVEKDIEYSDSDKDTDDVGSDDPTAPNSPIKLGRRKLVRGDQLDATTSSMFNNESDSELSDIDDSKNIALSSSLFRGGSSPVKETNNNLSNMNSSPAQNPKRGSVSRSNDSNKSSHIAVSKRPKQKKGIYRDSGGRTRLQIACDKGKYDVVKKMIEEGGYDINDQDNAGNTALHEAALQGHIEIVELLIENGADVNIKSIEMFGDTPLIDASANGHLDVVKYLLKNGADPTIRNAKGLTAFESVDDESEFDDEEDQKILREIKKRLSIAAKKWTNRAGIHNDKSKNGNNAHTIDQPPFDNTTKAKNEKAADSPSMASNIDEKAPEEEFYWTDVTSRAGKEKLFKASKEGHLPYVGTYVENGGKIDLRSFFESVKCGHEDITSIFLAFGFPVNQTSRDNKTSALMVAVGRGHLGTVKLLLEAGADPTKRDKKGRTALYYAKNSIMGITNSEEIQLIENAINNYLKKHSEDNNDDDDDDDNNNETYKHEKKREKTQSPILASRRSATPRIEDEEDDTRMLNLADDDFNNDRDVKESTTSDSRKRLDDNENVGTQYSLDWKKRKTNALQDEEKLKSISPLSMEPHSPKKAKSVEISKIHEETAAEREARLKEEEEYRKKRLEKKRKKEQELLQKLAEDEKKRIEEQEKQKVLEMERLEKATLEKARKMEREKEMEEISYRRAVRDLYPLGLKIINFNDKLDYKRFLPLYYFVDEKNDKFVLDLQVMILLKDIDLLSKDNQPTSEKIPVDPSHLTPLWNMLKFIFLYGGSYDDKKNNMENKRYVVNFDGVDLDTKIGYELLEYKKFVSLPMAWIKWDNVVIENHAKRKEIEGNMIQISINEFARWRNDKLNKAQQPTRKQRSLKIPRELPVKFQHRMSISSVLQQTSKEPFW
With B1, the binding entry in test [2] was “binds”.
